According to paper PMC5884528:
No constants are given. Whether binding was seen depends on the method and setting. In cells and extracts the contact can be indirect. Some results given as binding are weak or reduced against the parent protein; the word gives no strength.

Molecular target: T1, First Apoptosis Signal receptor (FAS) (human (endogenous in hVSMCs)), P25445
T1 chain: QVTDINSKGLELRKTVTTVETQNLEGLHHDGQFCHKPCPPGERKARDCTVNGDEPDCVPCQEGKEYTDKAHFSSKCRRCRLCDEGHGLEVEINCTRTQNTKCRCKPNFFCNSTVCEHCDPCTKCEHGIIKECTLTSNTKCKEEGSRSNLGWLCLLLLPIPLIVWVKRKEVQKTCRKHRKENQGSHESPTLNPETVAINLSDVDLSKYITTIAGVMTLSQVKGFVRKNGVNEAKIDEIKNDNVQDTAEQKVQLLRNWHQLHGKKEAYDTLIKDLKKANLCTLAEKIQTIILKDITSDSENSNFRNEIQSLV
Experiment: co-IP; lysates of hVSMCs infected with RAd60 or RAd-T3 (600 pfu/cell) for 48 h; IP with anti-FAS monoclonal 3D5 and protein-G sepharose at 4°C; IP buffer 20 mM Tris-HCl pH 7.4, 150 mM NaCl, 10 mM EDTA, 10% glycerol, 1% NP40, 1% Triton-X100; blot probed for caspase-8 and FAS
Conditions: remark: other sources report otherwise

B1: procaspase-8, Q14790 1-479 (enzyme)
chain: MDFSRNLYDIGEQLDSEDLASLKFLSLDYIPQRKQEPIKDALMLFQRLQEKRMLEESNLSFLKELLFRINRLDLLITYLNTRKEEMERELQTPGRAQISAYRVMLYQISEEVSRSELRSFKFLLQEEISKCKLDDDMNLLDIFIEMEKRVILGEGKLDILKRVCAQINKSLLKIINDYEEFSKERSSSLEGSPDEFSNGEELCGVMTISDSPREQDSESQTLDKVYQMKSKPRGYCLIINNHNFAKAREKVPKLHSIRDRNGTHLDAGALTTTFEELHFEIKPHDDCTVEQIYEILKIYQLMDHSNMDCFICCILSHGDKGIIYGTDGQEAPIYELTSQFTGLKCPSLAGKPKVFFIQACQGDNYQKGIPVETDSEEQPYLEMDLSSPQTRYIPDEADFLLGMATVNNCVSYRNPAEGTWYIQSLCQSLRERCPRGDDILTILTEVNYEVSNKDDKKNMGKQMPQPTFTLRKKLVFPSD
binding: binds
